Reference: US20130196915, “AFFINITY HYDROGELS FOR CONTROLLED PROTEIN RELEASE” (published 2013)

The chains behind the UniProt entries cited, without tags or fusion partners. Residues count along the entry.
UniProt P01127, 82-190: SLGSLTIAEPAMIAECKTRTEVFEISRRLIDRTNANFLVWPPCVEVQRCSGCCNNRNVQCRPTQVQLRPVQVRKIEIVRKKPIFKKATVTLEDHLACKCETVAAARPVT

Molecular target: PDGF-BB (Homo sapiens) (UniProt P01127)
Assay: SPR
Settings: purified recombinant protein, protein details: R&D Systems, amine-coupled to SPR chip, single-stranded DNA

Row | Sequence | binding result (CO (0-500 nM) accelerates dissociation, sequence assigned to SEQ 22 by length, variant of 36-nt truncated aptamer) | binding result (weaker than S1, variant of S1)
1 | ACAGGCTACGGCACGTAGAGCATCACCATGATCCTGTGACAACACCAAAAT [36-nt aptamer with 15-nt 3' tail] | binds | –
2 | CGCATGCTCAACAGGCTACGGCACGTAGAGCATCACCATGATCCTG [S5] | – | binds more weakly
3 | GCCGTTCCAAACAGGCTACGGCACGTAGAGCATCACCATGATCCTG [S7] | – | binds more weakly
4 | TGCCATGCCAACAGGCTACGGCACGTAGAGCATCACCATGATCCTG [S8] | – | binds more weakly

The comparison behind a weaker result is the experiment's own reference, which may not be listed here. For at least one entry, the source does not settle the construct or the ends of the probe.
